Assays:
[1] = tested on: UMNs of hSOD1^G93A-UeGFP mice; assay: Axon outgrowth of UMNs diseased by mSOD1 toxicity in dissociated motor cortex culture; format: cell-based, mouse; conditions: 3 days in vitro, riluzole 500 nM, edaravone 1 μM
Description: Mice. All animal procedures were approved by the Northwestern University Animal Care and Use committee and comply with the standards of the National Institutes of Health. All mice were on C57BL/6 background. Transgenic hemizygous males expressing a high copy number of the human SOD1 gene with a G93A mutation (B6SJL-Tg (SOD1*G93A)1Gur/J; The Jackson Laboratory) were bred to hemizygous UCHL1-eGFP females to generate hSOD1^G93A-UeGFP and WT-UeGFP (control) mice. UCHL1-eGFP mice were generated in the Ozdinler Lab; they are reporter lines for UMNs (Yasvoina, Genc et al. 2013), and are now available at Jackson Laboratory (stock no. 022476). Hemizygous UCHL1-eGFP females were bred to hemizygous prpTDP-43^A315T mice (procured from Jackson Laboratory, stock no. 010700) to generate prpTDP-43^A315T-UeGFP mice. prpTDP-43^A315T mice were supplied with gel diet (DietGel 76A, ClearH2O, ME, USA) to eliminate gastrointestinal (GI) complications. […]
UMNs were quantitatively analyzed for differences in neurite length and arborization complexity. Images taken with a 20× objective on the epifluorescent microscope (Nikon) were analyzed using the Neurite Tracer plugin from FIJI (NIH), which enables semi-autonomous tracing to measure the length of the axon. […]

[2] = tested on: UMNs of hSOD1^G93A-UeGFP mice; assay: Sholl analysis of arborization and branching, UMNs diseased by mSOD1 toxicity; format: cell-based, mouse; conditions: 3 days in culture, data not shown
Description: UMN Cultures. P3 motor cortices isolated from WT-UeGFP, hSOD1^G93A-UeGFP, and prpTDP-43^A315T-UeGFP mice were dissected, dissociated, and cultured on glass coverslips (4×10^4 cells per 18 mm diameter coverslip, Fisherbrand) coated with poly-L-lysine (10 mg/mL, Sigma) as previously described (Ozdinler and Macklis 2006). Neurons were cultured in SFM [0.034 mg/L BSA, 1 mM L-glutamine, 25 U/mL penicillin, 0.025 mg/mL streptomycin, 35 mM glucose, and 0.5% B27 in Neurobasal-A medium (Life Technologies)] in a humidified tissue culture incubator in the presence of 5% CO2 at 37° C. […] Cultures were fixed after 3 days in vitro (DIV).
UMNs were quantitatively analyzed for differences in neurite length and arborization complexity. Images taken with a 20× objective on the epifluorescent microscope (Nikon) were analyzed using the Neurite Tracer plugin from FIJI (NIH), which enables semi-autonomous tracing to measure the length of the axon. The aggregation of the neurite tracings centered at the soma generates a profile available for Sholl analysis.

Structure (SMILES): Nc1nc2ccc(OC(F)(F)F)cc2s1 [riluzole, 2-Amino-6-(trifluoromethoxy)benzothiazole]
- average length of UMN axons ([1]; NU-9 400 nM, SFM control 227.62±19.63 μm, WT 321.41±17.54 μm): 274.83±9.83 μm
- overall axon outgrowth (distribution of longest axons) [1]: improved overall axon outgrowth
- UMN arborization (Sholl measurements) [2]: improved UMN arborization, but to a lesser extent

— patent publication US20240398727A1, “(S)-5-(1-(3,5-BIS(TRIFLUOROMETHYL)PHENOXY)ETHYL)CYCLOHEXANE-1,3-DIONE (NU-9) IMPROVES THE HEALTH OF DISEASED UPPER MOTOR NEURONS” (Northwestern University, priority 2021, published 2024)
